According to article PMC12431653:
Results are given in words; binding and its absence hold for the method and conditions named. In cells and extracts the contact can be indirect. A result given as binding can be weak or reduced; the word gives no strength.

Target: T1, chicken peroxiredoxin 1 (chPRDX1) (chicken) (UniProt P0CB50)
T1 sequence: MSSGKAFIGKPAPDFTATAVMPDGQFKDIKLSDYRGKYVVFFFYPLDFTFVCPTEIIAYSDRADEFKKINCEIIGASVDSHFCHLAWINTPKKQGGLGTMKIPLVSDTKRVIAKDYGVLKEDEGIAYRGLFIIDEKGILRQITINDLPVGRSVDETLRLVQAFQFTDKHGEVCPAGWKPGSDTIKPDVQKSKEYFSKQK
Experiment: co-IP; DF-1 lysate in IP lysis buffer; PRDX1 specific antibody on immunomagnetic beads; pcDNA3.1(+) empty vector as control

chicken interferon-related antiviral protein (chIRAP)
binding: binds
